Test results taken from PMC7819943, “Rice protein-binding microarrays: a tool to detect cis-acting elements near promoter regions in rice”.
The other results are listed elsewhere or left out.

Protein sequences, listed by entry. Tags and fused reporters are not part of them.
UniProt Q0JBA9, entry or part of it: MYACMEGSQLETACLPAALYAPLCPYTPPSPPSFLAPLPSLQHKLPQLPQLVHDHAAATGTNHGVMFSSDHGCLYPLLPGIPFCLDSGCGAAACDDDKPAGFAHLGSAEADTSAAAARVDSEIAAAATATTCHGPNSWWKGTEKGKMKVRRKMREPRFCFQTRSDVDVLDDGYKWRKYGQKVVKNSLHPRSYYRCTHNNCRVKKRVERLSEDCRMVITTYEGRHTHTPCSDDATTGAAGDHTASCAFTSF

These sequences were tested against OsWRKY34 (Oryza sativa, UniProt Q0JBA9 1-250) (assay: protein-binding microarray (RPBM); PBS, 2% BSA, 51.3 ng/ul salmon testes DNA, 50 uM zinc acetate, 200 nM TF, 25 C, 1 h; high values mean tight binding). Conditions: protein: recombinant; tags: N-terminal polyhistidine and DsRed monomer fusion (pET32a); label: CyDye5-dUTP incorporated in the synthesized complementary strand; 3' TTTTT single-stranded linker to array surface; dsDNA, one strand shown.
Summary of the method: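 Binding signal is reported as fluorescence intensity per feature (arbitrary units) from an Axon 4000B scanner. Incubation used 200 nM of each Ni–NTA-purified, N-terminally polyhistidine- and DsRed-fused transcription factor from E. coli BL21-CodonPlus on a double-stranded custom Agilent array for 1 h at 25 °C, with 50 µM zinc acetate in the buffer, followed by washing.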

Sequence	binding signal
CTTCTTATCTCCCATATCTTAGGGTGTGTTTCGTTTTATGCGGAGTCACCTAGTGCAG	8050 fluorescence intensity (a.u.)
TTTTCTTCTCTTTCCTTTTCTTTTTTCCCTTCTTTTTTTCCGGAGTCACCTAGTGCAG	8650 fluorescence intensity (a.u.)
GCCCGCCGCTCCGTGCCCTAGCGCCGCCGCCGCCGCCGCCCGGAGTCACCTAGTGCAG	8110 fluorescence intensity (a.u.)
GCTATTGTTTTTTATTTATTAAAATATTGAATTTATCTCTCGGAGTCACCTAGTGCAG	10100 fluorescence intensity (a.u.)
AGGATCTCAATTGCAAATGGACACGGGTGGGTAACAATTACGGAGTCACCTAGTGCAG	11200 fluorescence intensity (a.u.)
CATCTTCCTTCCTACTCACGCCGCCGTCCGATCCATCAACCGGAGTCACCTAGTGCAG	10400 fluorescence intensity (a.u.)
AAAGCATCATTATTTTTTTTATTCCTTTCCATGCTTATACCGGAGTCACCTAGTGCAG	11100 fluorescence intensity (a.u.)
CGTCTTTTCTATCCAGGTTCATTGTAATGGGTCATATTCTCGGAGTCACCTAGTGCAG	16000 fluorescence intensity (a.u.)
TTCTGGGCATTAGATTTGTGATGTTTCTTGTGCAGATTTTCGGAGTCACCTAGTGCAG	9050 fluorescence intensity (a.u.)
TACCGTTCCTACTATAATTAAGCACGGCCGTTAATTGTCCCGGAGTCACCTAGTGCAG	8180 fluorescence intensity (a.u.)
CCGTTTCAAAATGTTTGACACCGTTGACTTTTTAGTACGTCGGAGTCACCTAGTGCAG	21100 fluorescence intensity (a.u.)
AATCATGTGTTATTGGCTTATTCTCCCATTGTACGTATCTCGGAGTCACCTAGTGCAG	9360 fluorescence intensity (a.u.)
TCGTATCTCCTGCTTTGATCTTAGTTCTTGAGTATTCCATCGGAGTCACCTAGTGCAG	8470 fluorescence intensity (a.u.)
GGTTTCTGTTATCGGTTTTCCAGTTTCAGTCCTATTGTAACGGAGTCACCTAGTGCAG	10900 fluorescence intensity (a.u.)
TATCATCCATCCATCCAGCCAGCCAAACAGTAGCAACATGCGGAGTCACCTAGTGCAG	8540 fluorescence intensity (a.u.)
CTTCTTCTCGTTCTCCTCCACCATTTTCAGCAGCAGATCCCGGAGTCACCTAGTGCAG	8150 fluorescence intensity (a.u.)
GACTGCTACTGTCGCCGCCTTCGTTCCTCTTCAGCACTACCGGAGTCACCTAGTGCAG	8110 fluorescence intensity (a.u.)
GTCTCTCTCCCTTCTCAAGTGTGCCTCATTTGTTGACTTTCGGAGTCACCTAGTGCAG	12500 fluorescence intensity (a.u.)
GCCTCGACATGCGCGTCCGATTTATCCCCTTTTTTTTTTTCGGAGTCACCTAGTGCAG	8470 fluorescence intensity (a.u.)
AAACCATGCGGCGCACGAGCCACTCGCACTCGCACTCGCACGGAGTCACCTAGTGCAG	9360 fluorescence intensity (a.u.)
GAACGTGGTGCCTTTTTTCGAGCTGTCTTAATAATATAATCGGAGTCACCTAGTGCAG	8830 fluorescence intensity (a.u.)
TTTTCCTTTGGATTTTCTACGATCTGTTTCCACATCCGAACGGAGTCACCTAGTGCAG	8310 fluorescence intensity (a.u.)
ATCTTGTTTTTTTCATCTTCCATTTTTCAATCATTTATTTCGGAGTCACCTAGTGCAG	11800 fluorescence intensity (a.u.)

Quoted at random: two entries already listed
Sequence	binding signal
TTTTCTTCTCTTTCCTTTTCTTTTTTCCCTTCTTTTTTTCCGGAGTCACCTAGTGCAG	8650 fluorescence intensity (a.u.)
CTTCTTCTCGTTCTCCTCCACCATTTTCAGCAGCAGATCCCGGAGTCACCTAGTGCAG	8150 fluorescence intensity (a.u.)
